Assay results from patent publication US20060025326A1, “Method for treating carrier particles and its use” (LAB Pharma Oy, priority 2002, published 2006).
For at least one compound, name, drawing or mass did not settle the structure.

Test: Microcalorimetric study of amorphous material
Type: physicochemical
Details: microcalorimetric study / detected in this work

**Q.** Which “amorphous (unstable) material” value does the source give for `CCCC1O[C@@H]2C[C@H]3[C@@H]4CCC5=CC(=O)C=C[C@]5(C)[C@H]4[C@@H](O)C[C@]3(C)[C@]2(C(=O)CO)O1` (stereo partly shown) [budesonide] here?
**A.** The value was “no amorphous fraction was detected”.
